# Reference: article PMC6271870, “Study on the Synthesis, Biological Activity and Spectroscopy of Naphthalimide-Diamine Conjugates” (Molecules, 2014)
# Tests used:
# [1] = test system: herring sperm DNA-EB; test: Fluorescence quenching of DNA-EB complex by compound (EB displacement); assay type: binding; details: 7f with DNA-EB; for ∆H°: van't Hoff
# Text: Ethidium bromide (EB) is a well known DNA intercalator, which is often used as a spectral probe to establish the mode of binding of small molecules to double-helical DNA [41]. The ﬂuorescence of EB increases after binding with DNA due to intercalation. Like EB, if naphthalimides intercalate into the helix of DNA, it would compete with EB for its intercalation sites in DNA, and the displacement of EB from the DNA–EB complex leads to a signiﬁcant decrease in the ﬂuorescence intensity of the DNA-EB complex. Therefore, herring sperm DNA-EB complex in the presence of increasing concentrations of naphthalimide-diamine conjugate 7f was also measured.
# (§1) The Stern–Volmer equation is the following: F0/F = 1+ KSVc = 1+ […] where F0 and F are the ﬂuorescence intensities in the absence and presence of quencher (DNA for compound 7f or compound 7f for DNA-EB, respectively), KSV is the Stern-Volmer quenching constant, [c] is the concentration of DNA (or compound 7f), Kq is the biomolecule quenching rate constant and Kq = KSV/τ0. τ0 is the average lifetime of the molecule without any quencher and the ﬂuorescence lifetime of the biopolymer is 10^−8 s. The Stern–Volmer plots of F0/F versus [c] at the three temperatures were shown in Figure 9 and Figure 10, and the calculated KSV and Kq values were presented in Table 2 and Table 3.
# (§2) When small molecules bind independently to a set of equivalent sites in a macromolecule, the binding constant (Kb) can be determined by the following equation [40, 52]: log[1/c] = log [F/(F0 − F)] + logKb(3) where Kb denotes the binding constant for interaction of naphthalimide–DNA, and F0, F, [c] have the same meanings as in Equation (2).
# (§3) There are several acting forces between a small organic molecule and biomacromolecules, such as hydrophobic force, hydrogen bond, van der Waals force, electrostatic interactions, etc.
# Solution of herring sperm DNA (0.3 mL, 2.284 × 10^−5 mol∙L^−1 in Tris-HCl (pH = 7.4) and 0.5 mL EB (1.57 × 10^−5 mol∙L^−1) was mixed with 0.0, 0.10, 0.20, 0.30, 0.60, 0.90 1.20, 1.50, 1.80, 2.10, 2.40, 2.70 and 3.00 mL of compound 7f (2.0 × 10^−4 mol∙L^−1) respectively. The mixture was diluted to 5 mL with Tris-HCl (pH = 7.4). Thus, samples were prepared in the concentration of compound 7f at 0.0, 4.0, 8.0, 12.0, 24.0, 36.0, 48.0, 60.0, 72.0, 84.0, 96.0 and 108.0 and 120.0 × 10^−6 mol∙L^−1. One contained only DNA (13.7 × 10^−6 mol∙L^−1) and EB (15.7 × 10^−6 mol∙L^−1) as control, the others contained different concentration of compound 7f but had the same concentration of DNA and EB. All the above solution was shaken for 30 min. at room temperature. Fluorescence wavelengths and intensity areas of samples were measured at following conditions: EX = 510 nm, EM = 520~800 nm; temperature: 298, 303 and 310 K.
# [2] = test system: herring sperm DNA; test: Fluorescence quenching of compound by DNA (Stern-Volmer, binding constant, thermodynamics); details: 7f with DNA; for ∆H°: van't Hoff
# Text: as §1, §2, §3
# Preparation of sample is the same as that of UV-Vis measurement. Fluorescence wavelengths and intensity areas of samples were measured at following conditions: EX = 345 nm, EM = 355~600 nm temperature: 298, 303 and 310 K.
compound,measurement,setting,value
"Cl.Cl.NCCCCNCCCN1C(=O)c2cccc3cccc(c23)C1=O [Compound 7f, 2-[3-(4-Aminobutylamino)propyl]1H-benz-[de]isoquinoline-1,3(2H)-dione dihydrochloride]",∆G°,[1]; 298 K,-5.098 kcal/mol
same,∆S°,[1]; 298 K,-0.0304 kcal/mol
same,∆H°,[1]; 298 K,-14.156 kcal/mol
same,∆G°,[1]; 303 K,-5.0602 kcal/mol
same,∆S°,[1]; 303 K,-0.0304 kcal/mol
same,∆H°,[1]; 303 K,-14.156 kcal/mol
same,∆G°,[1]; 310 K,-5.0459 kcal/mol
same,∆S°,[1]; 310 K,-0.0304 kcal/mol
same,∆H°,[1]; 310 K,-14.156 kcal/mol
same,∆G°,[2]; 298 K,-5.1573 kcal/mol
same,∆S°,[2]; 298 K,-0.00915 kcal/mol
same,∆H°,[2]; 298 K,-7.8831 kcal/mol
same,∆G°,[2]; 303 K,-5.1116 kcal/mol
same,∆S°,[2]; 303 K,-0.00915 kcal/mol
same,∆H°,[2]; 303 K,-7.8831 kcal/mol
same,∆G°,[2]; 310 K,-5.0201 kcal/mol
same,∆S°,[2]; 310 K,-0.00915 kcal/mol
same,∆H°,[2]; 310 K,-7.8831 kcal/mol
